PubChem BioAssay AID743121 – NCATS | 2013
Here is a random part of about 26,000 reagents. 167 of them (0.63%) count as active. 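Calls are per gene from RSA p-values that are not deposited; an individual active-marked siRNA can sensitise only weakly.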 Reagents against one gene are numbered here. No sequences are given here.

Purpose: 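Genes whose silencing strengthens cell killing by camptothecin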 (primary screen)
System: MDA-MB-231 cells, a human breast cancer line
Reagent: single siRNA against human genes, 20 nM siRNA (0.8 pmol per well)
Duration: 120 h (drug added 48 h after transfection, read 72 h later)
Conditions: camptothecin 20 nM (about EC30) for 72 h; vehicle 0.1% DMSO in parallel plates
Measured: 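CellTiter-Glo ATP signal, scaled to control siRNA as percent viability; sensitisation given as log2 of untreated divided by camptothecin-treated viability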
Direction: log2 vehicle/camptothecin viability: higher = stronger sensitisation to camptothecin; viability with camptothecin and viability without drug: higher = more viable cells
Rule for the call: 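Each gene scored by redundant siRNA activity (RSA) over its individual siRNA ratios; a gene is called active at p < 0.001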

no.	gene	reagent no.	log2 vehicle/camptothecin viability	viability with camptothecin (% of control)	viability without drug (% of control)	outcome
1	LPAR3	1	-0.591	67.9	45.1	inactive
2	LPAR3	2	-0.0412	62.1	60.3	inactive
3	LPAR3	3	0.145	52.7	58.3	inactive
4	LPAR3	4	0.24	45.5	53.7	inactive
5	CHRM5	1	0.114	72.6	78.6	inactive
6	CHRM5	2	0.494	18.9	26.6	inactive
7	CHRM5	3	0.0227	71.6	72.7	inactive
8	CHRM5	4	0.0275	81	82.5	inactive
9	RNF213	1	-0.388	102	78.1	inactive
10	RNF213	2	-0.383	102	78.3	inactive
11	RNF213	3	-0.289	65.7	53.8	inactive
12	BTN3A3	1	-0.0806	93	88	inactive
13	BTN3A3	2	0.0369	84.9	87.1	inactive
14	BTN3A3	3	-0.16	91.2	81.7	inactive
15	BTN3A3	4	0.155	93.6	104	inactive
16	ZNF875	1	-0.194	45.2	39.5	inactive
17	ZNF875	2	-0.178	101	88.9	inactive
18	ZNF875	3	0.0455	41.6	42.9	inactive
19	ZNF875	4	-0.163	79.7	71.2	inactive
20	G6PC1	1	-0.639	66.8	42.9	inactive
21	G6PC1	2	-0.236	98.5	83.6	inactive
22	G6PC1	3	-0.17	80.7	71.7	inactive
23	G6PC1	4	-0.174	27	23.9	inactive
24	NRG2	1	0.0835	57.9	61.3	inactive
25	NRG2	2	1.13	34.5	75.4	inactive
26	NRG2	3	-0.578	104	69.8	inactive

4 entries from above, arranged by “log2 vehicle/camptothecin viability”, low to high:
gene	reagent no.	log2 vehicle/camptothecin viability	viability with camptothecin (% of control)	viability without drug (% of control)	outcome
RNF213	3	-0.289	65.7	53.8	inactive
BTN3A3	3	-0.16	91.2	81.7	inactive
BTN3A3	1	-0.0806	93	88	inactive
BTN3A3	2	0.0369	84.9	87.1	inactive

The listing continues:
no.	gene	reagent no.	log2 vehicle/camptothecin viability	viability with camptothecin (% of control)	viability without drug (% of control)	outcome
27	C5AR1	1	0.00714	42.5	42.7	inactive
28	C5AR1	2	0.247	92	109	inactive
29	C5AR1	3	-0.122	107	98.3	inactive
30	C5AR1	4	-0.277	85.9	70.9	inactive
31	RRBP1	1	-0.263	98.3	81.9	inactive
32	RRBP1	2	-0.0882	103	96.9	inactive
33	RRBP1	3	-0.0747	81.8	77.7	inactive
34	RRBP1	4	-0.672	114	71.6	inactive
35	BCR	1	-0.183	80.6	71	inactive
36	BCR	2	0.156	48	53.4	inactive
37	BCR	3	0.145	5.87	6.49	inactive
38	BCR	4	-0.14	43.7	39.7	inactive
39	FADD	1	-0.131	100	91.4	inactive
40	FADD	2	-0.206	63.7	55.2	inactive
41	FADD	3	0.012	90.8	91.6	inactive
42	CARD8	1	-0.14	41.8	37.9	inactive
43	CARD8	2	-0.412	85.1	64	inactive
44	CARD8	3	-0.0823	92	86.9	inactive
45	SLAMF8	1	0.011	110	110	inactive
46	SLAMF8	2	-0.273	105	86.5	inactive
47	SLAMF8	3	0.12	85.4	92.8	inactive
48	SLAMF8	4	-0.488	129	91.7	inactive
49	PPARA	1	-0.231	99.2	84.5	inactive
50	PPARA	2	0.044	86.4	89.1	inactive
51	PPARA	3	0.799	40.2	70	inactive
52	RBM24	1	-0.309	65.9	53.2	inactive
53	RBM24	2	-0.285	59.4	48.8	inactive
54	RBM24	3	-0.13	97.1	88.7	inactive
55	RAMP2	1	0.00855	45.1	45.4	inactive
56	RAMP2	2	0.306	50.2	62.1	inactive
57	RAMP2	3	0.0376	60.3	61.9	inactive
58	NRBP1	1	-0.541	70.2	48.2	inactive
59	NRBP1	2	-0.217	48.9	42.1	inactive
60	NRBP1	3	0.323	41.3	51.6	inactive
61	NRBP1	4	-0.0938	7.02	6.58	inactive
62	CETN2	1	-0.0298	84.4	82.7	inactive
63	CETN2	2	-0.107	108	101	inactive
64	CETN2	3	-0.548	77	52.7	inactive
65	CETN2	4	0.0651	48.8	51	inactive
66	KCNS2	1	0.139	78.5	86.5	inactive
67	KCNS2	2	-0.2	56.9	49.5	inactive
68	KCNS2	3	0.0769	93.4	98.5	inactive
69	KCNS2	4	-0.181	65.7	57.9	inactive
